In US10188743B2, “Cytisine-linked isoflavonoid antineoplastic agents for the treatment of cancer” (UNIVERSITY OF KENTUCKY RESEARCH FOUNDATION, priority 2016, dated 2019):
Some of these results come from one statement about several compounds together. At least one compound was matched to its structure with a doubt left. Some ranges recur; such a range may be that of the whole group of compounds.

Test system: AMPK
Assay: AMPK activation (levels of phosphorylated AMPK, Western blotting)
Assay type: cell-based
Method: Biochemistry. Western blotting: Cells were lysed in the appropriate volume of lysis buffer (50 mM HEPES, 100 mM NaCl, 2 mM EDTA, 1% glycerol, 50 mM NaF, 1 mM Na3VO4, 1% Triton X-100, with protease inhibitors). The following antibodies were used: HSD17B4 (GeneTex, GTX103864), AMPK (Cell Signaling, 2532), pAMPK (Cell Signaling, 2535), ACC (Cell Signaling, 3676), pACC (Cell Signaling, 11818), p^70 (Cell Signaling, 2708), p-p^70 (Cell Signaling, 9914), S6 (Cell Signaling, 2217), pS6 (Cell Signaling, 4858), MCCA (GeneTex, GTX110062), tubulin (Hybridoma Bank, E7), Actin (Sigma, A1978), His-tag (BD Pharmingen, 552564).

In the case of `Cc1oc2cc(OCCCCC(CN3C[C@@H]4C[C@@H](C3)c3cccc(=O)n3C4)=NNC(=O)CCOCCOCCOCCOCCNC(=O)CCCC[C@@H]3SCC4NC(=O)NC43)ccc2c(=O)c1-c1ccc(Cl)cc1` (stereo partly drawn) [Compound 15d, N-(22-((3-(4-chlorophenyl)-2-methyl-4-oxo-4H-chromen-7-yl)oxy)-15-oxo-18-(((1S,5S)-8-oxo-1,5,6,8-tetrahydro-2H-1,5-methanopyrido[1,2-a][,5]diazocin-3(4H)-yl)methyl)-3,6,9,12-tetraoxa-16,17-diazadocos-17-en-1-yl)-5-((4S)-2-oxohexahydro-1H-thieno[3,4-d]imidazol-4-yl)pentanamide], the “concentration at which AMPK activation was exhibited” value is reported as 10 to 30 µM.
`Cc1oc2cc(OCCCCC(O)CN3C[C@@H]4C[C@@H](C3)c3cccc(=O)n3C4)ccc2c(=O)c1-c1ccc(Cl)cc1` (stereo partly drawn) [Compound 13d, (1S,5S)-3-(6-((3-(4-Chlorophenyl)-2-methyl-4-oxo-4H-chromen-7-yl)oxy)-2-hydroxyhexyl)-3,4,5,6-tetrahydro-1H-1,5-methanopyrido[1,2-a][1,5]diazocin-8(2H)-one] was tested, and the “concentration at which AMPK activation was exhibited” value was 10 to 30 µM.
